From the supplement of paper PMC8728848
Some of the results follow.

Tests used:
Test in all cases: glycan array binding signal (z-score within array); higher = stronger binding
Conditions in all cases: glycan notation: IUPAC condensed, linker removed
[1] = target: Neu5Ac(a2-6)GlcNAc(b1-4)GlcNAc(b1-4)GlcNAc
How it was run: (§1)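 Glycan array binding is given as a within-array Z-score, which can be read as non-binding when negative. The arrays, 3228 of them, came from the Consortium for Functional Glycomics database and were retained only where the protein sequence was available. Z-scores were averaged across arrays of the same protein sequence at different concentrations or buffers and across linkers.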

Neu5Ac(a2-8)Neu5Ac = target: Neu5Ac(a2-8)Neu5Ac
How it was run: as §1

[2] = target: Neu5Ac(a2-8)Neu5Ac(a2-3)Gal(b1-3)GalNAc(b1-4)[Neu5Ac(a2-3)]Gal(b1-4)Glc
How it was run: as §1

[3] = target: Neu5Ac(a2-8)Neu5Ac(a2-3)Gal(b1-3)GalNAc(b1-4)[Neu5Ac(a2-8)Neu5Ac(a2-3)]Gal(b1-4)Glc
How it was run: as §1

[4] = target: Neu5Ac(a2-8)Neu5Ac(a2-3)Gal(b1-4)Glc
How it was run: as §1

[5] = target: Neu5Ac(a2-8)Neu5Ac(a2-3)Gal(b1-4)GlcNAc
How it was run: as §1

[6] = target: Neu5Ac(a2-8)Neu5Ac(a2-3)[Gal(b1-3)GalNAc(b1-4)]Gal(b1-4)Glc
How it was run: as §1

[7] = target: Neu5Ac(a2-8)Neu5Ac(a2-3)[GalNAc(b1-4)]Gal(b1-4)Glc
How it was run: as §1

[8] = target: Neu5Ac(a2-8)Neu5Ac(a2-8)Neu5Ac
How it was run: as §1

[9] = target: Neu5Ac(a2-8)Neu5Ac(a2-8)Neu5Ac(a2-3)Gal(b1-4)Glc
How it was run: as §1

[10] = target: Neu5Ac(a2-8)Neu5Ac(a2-8)Neu5Ac(a2-3)[Gal(b1-3)GalNAc(b1-4)]Gal(b1-4)Glc
How it was run: as §1

[11] = target: Neu5Ac(a2-8)Neu5Ac(a2-8)Neu5Ac(a2-3)[GalNAc(b1-4)]Gal(b1-4)Glc
How it was run: as §1

[12] = target: Neu5Ac(a2-8)Neu5Ac(a2-8)Neu5Ac(a2-8)Neu5Ac(a2-3)[GalNAc(b1-4)]Gal(b1-4)Glc
How it was run: as §1

[13] = target: Neu5Ac(a2-8)Neu5Gc(a2-3)Gal(b1-4)GlcNAc
How it was run: as §1

[14] = target: Neu5Ac(b2-6)Gal(b1-4)GlcNAc
How it was run: as §1

Neu5Ac(b2-6)GalNAc = target: Neu5Ac(b2-6)GalNAc
How it was run: as §1

[15] = target: Neu5Ac9Ac(a2-3)Gal(b1-3)GlcNAc
How it was run: as §1

[16] = target: Neu5Ac9Ac(a2-3)Gal(b1-4)GlcNAc
How it was run: as §1

[17] = target: Neu5Ac9Ac(a2-6)Gal(b1-4)GlcNAc
How it was run: as §1

[18] = target: Neu5Gc(a2-3)Gal(b1-3)GlcNAc
How it was run: as §1

[19] = target: Neu5Gc(a2-3)Gal(b1-3)[Fuc(a1-4)]GlcNAc
How it was run: as §1

Neu5Gc(a2-3)Gal(b1-4)Glc = target: Neu5Gc(a2-3)Gal(b1-4)Glc
How it was run: as §1

[20] = target: Neu5Gc(a2-3)Gal(b1-4)GlcNAc
How it was run: as §1

[21] = target: Neu5Gc(a2-3)Gal(b1-4)GlcNAc(b1-3)Gal(b1-4)GlcNAc(b1-2)Man(a1-3)[Neu5Gc(a2-3)Gal(b1-4)GlcNAc(b1-3)Gal(b1-4)GlcNAc(b1-2)Man(a1-6)]Man(b1-4)GlcNAc(b1-4)GlcNAc
How it was run: as §1

[22] = target: Neu5Gc(a2-3)Gal(b1-4)[Fuc(a1-3)]GlcNAc
How it was run: as §1

[23] = target: Neu5Gc(a2-6)Gal(b1-4)GlcNAc
How it was run: as §1

Neu5Gc(a2-6)GalNAc = target: Neu5Gc(a2-6)GalNAc
How it was run: as §1

[24] = target: Neu5Gc(a2-8)Neu5Ac(a2-3)Gal(b1-4)GlcNAc
How it was run: as §1

[25] = target: Neu5Gc(a2-8)Neu5Gc(a2-3)Gal(b1-4)GlcNAc
How it was run: as §1

[26] = target: Neu5Gc(a2-8)Neu5Gc(a2-3)Gal(b1-4)GlcNAc(b1-3)Gal(b1-4)GlcNAc
How it was run: as §1

[27] = target: Neu5Gc(a2-8)Neu5Gc(a2-6)Gal(b1-4)GlcNAc
How it was run: as §1

[28] = target: Neu5Gc(b2-6)Gal(b1-4)GlcNAc
How it was run: as §1

B1: XTP3-B-MRH2 (Homo sapiens), Q96DZ1 (protein)
chain: EFLSGSYCFRGGVGWWKYEFCYGKHVHQYHEDKDSGKTSVVVGTWNQEEHIEWAKKNTARAYHLQDDGTQTVRMVSHFYGNGDICDITDKPRQVTVKLKCKESDSPHAVTVYMLEPHSCQYILGVESPVICKILDTA
[1]
  glycan array binding signal (z-score): 0.385
Neu5Ac(a2-8)Neu5Ac
  glycan array binding signal (z-score): 0.01
[2]
  glycan array binding signal (z-score): 0.953
[3]
  glycan array binding signal (z-score): -0.5
[4]
  glycan array binding signal (z-score): -1.04
[5]
  glycan array binding signal (z-score): 0.479
[6]
  glycan array binding signal (z-score): -0.878
[7]
  glycan array binding signal (z-score): 0.834
[8]
  glycan array binding signal (z-score): 0.237
[9]
  glycan array binding signal (z-score): -0.439
[10]
  glycan array binding signal (z-score): 2.07
[11]
  glycan array binding signal (z-score): 1.37
[12]
  glycan array binding signal (z-score): 1.99
[13]
  glycan array binding signal (z-score): -0.171
[14]
  glycan array binding signal (z-score): 0.4
Neu5Ac(b2-6)GalNAc
  glycan array binding signal (z-score): -0.746
[15]
  glycan array binding signal (z-score): -0.138
[16]
  glycan array binding signal (z-score): -0.6
[17]
  glycan array binding signal (z-score): 0.258
[18]
  glycan array binding signal (z-score): -1.19
[19]
  glycan array binding signal (z-score): -0.235
Neu5Gc(a2-3)Gal(b1-4)Glc
  glycan array binding signal (z-score): 0.132
[20]
  glycan array binding signal (z-score): 0.003
[21]
  glycan array binding signal (z-score): -0.501
[22]
  glycan array binding signal (z-score): 1.08
[23]
  glycan array binding signal (z-score): -0.292
Neu5Gc(a2-6)GalNAc
  glycan array binding signal (z-score): -1.02
[24]
  glycan array binding signal (z-score): 0.283
[25]
  glycan array binding signal (z-score): 2.85
[26]
  glycan array binding signal (z-score): 1.33
[27]
  glycan array binding signal (z-score): -1.01
[28]
  glycan array binding signal (z-score): 1.3
